Results as given in paper PMC11525750.

Amino acid sequences for entries named in this document (tags omitted).
UniProt Q8NCD3: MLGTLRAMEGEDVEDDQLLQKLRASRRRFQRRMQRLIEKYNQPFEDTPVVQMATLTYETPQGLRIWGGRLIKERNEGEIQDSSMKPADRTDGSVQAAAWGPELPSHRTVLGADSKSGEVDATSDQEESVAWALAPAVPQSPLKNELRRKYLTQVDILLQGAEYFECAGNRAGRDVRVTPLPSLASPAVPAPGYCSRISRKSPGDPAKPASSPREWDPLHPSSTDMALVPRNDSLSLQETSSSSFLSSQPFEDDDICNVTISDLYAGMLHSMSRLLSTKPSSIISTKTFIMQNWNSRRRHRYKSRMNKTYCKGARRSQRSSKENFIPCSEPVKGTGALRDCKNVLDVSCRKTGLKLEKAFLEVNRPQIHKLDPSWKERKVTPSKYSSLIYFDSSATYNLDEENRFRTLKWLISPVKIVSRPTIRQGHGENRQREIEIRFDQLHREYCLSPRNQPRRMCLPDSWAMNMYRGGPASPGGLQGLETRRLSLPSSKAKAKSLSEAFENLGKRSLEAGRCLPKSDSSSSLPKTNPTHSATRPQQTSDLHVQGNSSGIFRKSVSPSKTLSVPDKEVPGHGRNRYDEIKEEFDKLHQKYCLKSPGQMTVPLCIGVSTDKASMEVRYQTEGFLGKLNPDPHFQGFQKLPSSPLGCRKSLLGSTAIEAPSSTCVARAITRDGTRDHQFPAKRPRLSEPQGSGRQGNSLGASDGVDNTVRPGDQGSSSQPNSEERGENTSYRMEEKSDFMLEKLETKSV

How the values were obtained:
[1] = target: Holliday junction recognition protein (HJURP) (human (endogenous in C4-2 and PC3)) (UniProt Q8NCD3); assay: affinity purification with mass spectrometry; C4-2 lysate, Co-IP with anti-HJURP antibody (IgG as control), reductive SDS-PAGE, the gel bands of all the proteins analysed by LC-MS/MS; in duplicate
[2] = target: Holliday junction recognition protein (HJURP) (human (endogenous in C4-2 and PC3)) (UniProt Q8NCD3); assay: affinity purification with mass spectrometry; C4-2 cells treated with 10 μM H2O2 for 2 min and 20 mM MMTS, endogenous HJURP precipitated with anti-HJURP antibody (IgG as control), non-reducing SDS-PAGE, disulfide-linked intermediates >75 KDa analysed by LC-MS/MS; in duplicate

B1: peroxiredoxin 1 (PRDX1) (enzyme, UniProt Q06830 1-199)
chain: MSSGNAKIGHPAPNFKATAVMPDGQFKDISLSDYKGKYVVFFFYPLDFTFVCPTEIIAFSDRAEEFKKLNCQVIGASVDSHFCHLAWVNTPKKQGGLGPMNIPLVSDPKRTIAQDYGVLKADEGISFRGLFIIDDKGILRQITVNDLPVGRSVDETLRLVQAFQFTDKHGEVCPAGWKPGSDTIKPDVQKSKEYFSKQK
- binding [1]: binds
- binding [2]: binds

No constants are given. Whether binding was seen depends on the method and setting. In cells and extracts the contact can be indirect. A yes stands for co-enrichment or nearness to the bait. Other partners may have been found.
